# These are yes or no findings as the source states them, for the method shown. Some results given as binding are weak or reduced against the parent protein; the word gives no strength.
# Sequences of proteins named here, by UniProt entry; tags and fusion partners are left off. Residues count along the entry.
# UniProt Q15116, residues 25-288: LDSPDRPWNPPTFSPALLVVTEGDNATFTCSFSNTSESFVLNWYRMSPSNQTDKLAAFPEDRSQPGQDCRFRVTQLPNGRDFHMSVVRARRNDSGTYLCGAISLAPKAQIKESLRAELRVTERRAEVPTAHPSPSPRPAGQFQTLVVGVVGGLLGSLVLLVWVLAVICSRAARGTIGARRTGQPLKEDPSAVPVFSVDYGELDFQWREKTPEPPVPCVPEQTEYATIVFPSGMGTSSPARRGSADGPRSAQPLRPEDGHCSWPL
# B1: humanized antibody 18A10 H3L3 (antibody, V domains shown)
# VH: EVQLVQSGGGLVQPGGSLKLSCAASGFTFSSYGMSWVRQAPGKGLDWVATISGGGRDTYYPDSVKGRFTISRDNSKNTLYLQMNSLRAEDTAVYYCARQKGEAWFAYWGQGTLVTVSS
# VL: DIVLTQSPASLAVSPGQRATITCRASESVDNYGISFMNWYQQKPGQPPKLLIYAASNKATGVPARFSGSGSGTDFTLNINPMEANDTAVYFCQQSKEVPWTFGGGTKLEIK
# Molecular target: PD-1 antigen stably expressed on the surface of BB007 cells (UniProt Q15116)
# Experiment: flow cytometry on BB007 cells
binder,measurement,value
B1,binding,binds

# — patent US20190040138A1
